Measurements published in PubChem BioAssay AID328 (DTP/NCI, 2004).
The list is a part of this screen's results and no random one: it gathers tests that were run many times, whatever their T/C, doses with no T/C, and many T/C values between a quarter and a half above the control. Further doses and runs are listed elsewhere. T/C is the treated group as % of the vehicle group. Some doses have a count of surviving animals in place of a T/C: the source holds a T/C of zero for them, seemingly a mark for toxic or unscored doses. Some survivor counts are full or nearly so, which does not show that the dose was tolerated: survival well below the control is almost never listed, so the zero probably covers shortened survival too. Counts of survivors are from the toxicity check (mostly the fifth day) where no day follows; animals may have died later. Schedules are NCI's codes, read here as Q, the interval in days (D) or hours (H), X, the number of doses. Some entries were tested several times; the values are given in rising order. Some structures stand for samples that the source files as different forms (salt, stereo form or complex); doses refer to the form tested. For survival time, the PubChem record calls one and a half times the control and up active, and a quarter to a half above the control has no call in these data; cut-offs in other NCI protocols can differ.

System: BDF1 mice, P388 leukemia ip, median survival T/C
Assay: NCI In Vivo Anticancer Drug Screen. Data for tumor model P388 Leukemia (intraperitoneal) in B6D2F1 (BDF1) mice
Details: T/C endpoint: median survival time, higher T/C = longer survival
In short: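 Antitumour effect was judged in vivo: survival in drug-treated mice, normalised to that of vehicle-dosed controls, gives the reported T/C.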

[1] = dose: 100.0 mg/kg/injection, schedule: Q01DX009 (ip), vehicle: saline
[2] = dose: 200.0 mg/kg/injection, schedule: Q04DX003 (ip), vehicle: saline
[3] = dose: 200.0 mg/kg/injection, schedule: Q01DX009 (ip), vehicle: Klucel (hydroxypropylcellulose) (HPC)
[4] = dose: 100.0 mg/kg/injection, schedule: Q01DX009 (ip), vehicle: Klucel (hydroxypropylcellulose) (HPC)
[5] = dose: 400.0 mg/kg/injection, schedule: Q04DX003 (ip), vehicle: saline
[6] = dose: 50.0 mg/kg/injection, schedule: Q01DX009 (ip), vehicle: saline
[7] = dose: 200.0 mg/kg/injection, schedule: Q01DX009 (ip), vehicle: saline with Tween-80
[8] = dose: 200.0 mg/kg/injection, schedule: Q01DX009 (ip), vehicle: saline
[9] = dose: 50.0 mg/kg/injection, schedule: Q01DX009 (ip), vehicle: saline with Tween-80

## O=C1CCCN1.O=C1CCCN1.[Br][Co][Br]
dose: 67.0 mg/kg/injection, schedule: Q01DX009 (ip), vehicle: saline
  T/C: 127 % of control
[1]
  T/C: 130 % of control
dose: 150.0 mg/kg/injection, schedule: Q01DX009 (ip), vehicle: saline
  survivor count: 0 of 6 and 3 of 6
[2]
  survivor count: 4 of 6

## CCC(C#N)(c1ccccc1)c1ccccc1
[3]
  survivor count: 6 of 6

## c1cc(Nc2ccc(Nc3ccc(CN4CCCCC4)cc3)cc2)ccc1CN1CCCCC1
dose: 50.0 mg/kg/injection, schedule: Q01DX009 (ip), vehicle: other
  T/C: 149 % of control
dose: 100.0 mg/kg/injection, schedule: Q01DX009 (ip), vehicle: other
  T/C: 133 % of control
dose: 200.0 mg/kg/injection, schedule: Q01DX009 (ip), vehicle: other
  survivor count: 0 of 6

## C=C1C(=O)OCC2C(C(=O)O)=CC3C(C)C(C)=CC123 (configuration not stated)
dose: 5.0 mg/kg/injection, schedule: Q01DX009 (ip), vehicle: other
  T/C: 128 % of control
dose: 10.0 mg/kg/injection, schedule: Q01DX009 (ip), vehicle: other
  T/C: 144 % of control
dose: 20.0 mg/kg/injection, schedule: Q01DX009 (ip), vehicle: other
  T/C: 144 % of control
dose: 40.0 mg/kg/injection, schedule: Q01DX009 (ip), vehicle: Klucel (hydroxypropylcellulose) (HPC)
  T/C: 127 % of control
dose: 40.0 mg/kg/injection, schedule: Q01DX009 (ip), vehicle: other
  survivor count: 4 of 6
dose: 80.0 mg/kg/injection, schedule: Q01DX009 (ip), vehicle: Klucel (hydroxypropylcellulose) (HPC)
  survivor count: 3 of 3
dose: 80.0 mg/kg/injection, schedule: Q04DX003 (ip), vehicle: other
  T/C: 133 % of control

## O=S1(=O)CCN(C2CC2)CC1
[4]
  survivor count: 0 of 6
[3]
  survivor count: 0 of 6

## NNC(=O)c1ccccn1
[2]
  survivor count: 5 of 6
[5]
  survivor count: 0 of 6

## CCOC(=O)c1c[nH]c2ccc(N(CCCl)CCCl)cc12
dose: 0.66 mg/kg/injection, schedule: Q01DX009 (ip), vehicle: saline with Tween-80
  T/C: 129 % of control
dose: 1.0 mg/kg/injection, schedule: Q01DX009 (ip), vehicle: saline with Tween-80
  T/C: 132 % of control
dose: 2.0 mg/kg/injection, schedule: Q04DX003 (ip), vehicle: saline with Tween-80
  T/C: 136 % of control
dose: 2.2 mg/kg/injection, schedule: Q04DX003 (ip), vehicle: saline with Tween-80
  T/C: 133 % of control
dose: 3.0 mg/kg/injection, schedule: Q04DX003 (ip), vehicle: saline with Tween-80
  T/C: 136 % of control
dose: 3.3 mg/kg/injection, schedule: Q04DX003 (ip), vehicle: saline with Tween-80
  T/C: 145 % of control

## OC(c1cc(-c2ccc(C(F)(F)F)cc2)nc(C(F)(F)F)c1)C1CCCCN1 (configuration not stated)
[6]
  survivor count: 3 of 6
dose: 100.0 mg/kg/injection, schedule: Q01DX009 (ip), vehicle: saline with Tween-80
  survivor count: 2 of 6
[1]
  survivor count: 0 of 6
[7]
  survivor count: 0 of 6
[8]
  survivor count: 0 of 6

## COc1cc(N/C(N)=N\C(N)=NC(C)C)cc(OC)c1OC
dose: 200.0 mg/kg/injection, schedule: Q04DX003 (ip), vehicle: saline sonified
  survivor count: 5 of 6
dose: 400.0 mg/kg/injection, schedule: Q04DX003 (ip), vehicle: saline sonified
  survivor count: 0 of 6

## OCCC1CCN(CC/C=C2/c3ccc(F)cc3Sc3ccc(C(F)(F)F)cc32)CC1
dose: 6.25 mg/kg/injection, schedule: Q01DX001 (ip), vehicle: saline
  survivor count: 6 of 6
dose: 12.5 mg/kg/injection, schedule: Q01DX001 (ip), vehicle: saline
  survivor count: 6 of 6
dose: 25.0 mg/kg/injection, schedule: Q01DX001 (ip), vehicle: saline
  survivor count: 2 of 6

## CCOc1ccc(Br)cc1/C=N\N=C\c1cc(Br)ccc1OCC
dose: 25.0 mg/kg/injection, schedule: Q01DX001 (ip), vehicle: Klucel (hydroxypropylcellulose) (HPC)
  survivor count: 6 of 6
dose: 50.0 mg/kg/injection, schedule: Q01DX001 (ip), vehicle: Klucel (hydroxypropylcellulose) (HPC)
  survivor count: 6 of 6
dose: 100.0 mg/kg/injection, schedule: Q01DX001 (ip), vehicle: Klucel (hydroxypropylcellulose) (HPC)
  survivor count: 5 of 6

## BrCCC1(CCBr)CCCCC1
dose: 400.0 mg/kg/injection, schedule: Q04DX003 (ip), vehicle: water
  T/C: 136 % of control

## CCCNC(=S)NNC(=O)c1ccncc1
[9]
  survivor count: 6 of 6
[7]
  survivor count: 0 of 6

## O=C1CCCC(=O)N1CCCCCCN1C(=O)CCCC1=O
[7]
  survivor count: 3 of 6

## CCCCCCCCCCCCCCCCSc1ccc(C)cc1
dose: 100.0 mg/kg/injection, schedule: Q04DX003 (ip), vehicle: Klucel (hydroxypropylcellulose) (HPC)
  survivor count: 6 of 6
dose: 200.0 mg/kg/injection, schedule: Q04DX003 (ip), vehicle: Klucel (hydroxypropylcellulose) (HPC)
  survivor count: 6 of 6
dose: 400.0 mg/kg/injection, schedule: Q04DX003 (ip), vehicle: Klucel (hydroxypropylcellulose) (HPC)
  survivor count: 6 of 6

## O=C1C=C(Nc2nc(O)cc(=O)[nH]2)c2ccccc2C1=O
dose: 225.0 mg/kg/injection, schedule: Q04DX003 (ip), vehicle: Klucel (hydroxypropylcellulose) (HPC)
  survivor count: 3 of 6
dose: 335.0 mg/kg/injection, schedule: Q04DX003 (ip), vehicle: Klucel (hydroxypropylcellulose) (HPC)
  survivor count: 2 of 6

## C/C(=N/N(C)C)c1ccccn1
dose: 400.0 mg/kg/injection, schedule: Q01DX009 (ip), vehicle: saline with Tween-80
  survivor count: 2 of 6

## Cc1ccc(S(=O)(=O)c2ccc(Sc3cccc[n+]3[O-])c3nonc23)cc1
[9]
  T/C: 131 % of control

## COc1ccc2c(C#N)cc3c4ccccc4ncc3c2c1
dose: 200.0 mg/kg/injection, schedule: Q01DX009 (ip), vehicle: distilled water + Tween-80
  survivor count: 3 of 6

## C=CC[N+](CC)(CC)Cc1ccc(C[N+](CC)(CC)CC=C)cc1
dose: 100.0 mg/kg/injection, schedule: Q04DX003 (ip), vehicle: saline
  survivor count: 0 of 6
[2]
  survivor count: 0 of 6
[5]
  survivor count: 0 of 6

## O=[N+]([O-])C(Cl)(Cl)C(Cl)(Cl)[N+](=O)[O-]
dose: 10.0 mg/kg/injection, schedule: Q04DX003 (ip), vehicle: other
  survivor count: 4 of 6

## CCC(=O)OC1CC2C3CCC4=CC(=O)CCC4(C)C3CCC2(C)C1OC(=O)CC (configuration not stated)
[4]
  survivor count: 6 of 6
[3]
  survivor count: 6 of 6

## CC1=C[P+](c2ccccc2)(c2ccccc2)C=C(C)O1
dose: 50.0 mg/kg/injection, schedule: Q01DX005 (ip), vehicle: saline
  survivor count: 0 of 5
dose: 100.0 mg/kg/injection, schedule: Q01DX005 (ip), vehicle: saline
  survivor count: 0 of 5
dose: 200.0 mg/kg/injection, schedule: Q01DX005 (ip), vehicle: saline
  survivor count: 0 of 5

## O=S(=O)([O-])[O-].OCCNCCNCC[OH2+].OCCNCCNCC[OH2+].[Cu+2]
[6]
  survivor count: 3 of 6
[1]
  survivor count: 0 of 6
[8]
  survivor count: 0 of 6
